Data published in PubChem BioAssay AID1117272 (Broad Institute, 2014).
Some of the results follow. Potency and affinity values are given separately. The source made no clear call on entries shown without one.

Assay: PubChem AID 1117272
Conditions: orthopoxvirus-infected cells, late gene fluorescent reporter; at 10 µM (top of the series)

## COc1ccccc1-c1ccc(CN(C)C[C@@H]2Oc3cc(C#C[C@@H](C)O)ccc3S(=O)(=O)N([C@@H](C)CO)C[C@@H]2C)cc1
  activity change, negative = inhibition: 40.5%
